According to patent US7732504B2, “Functionalized photoinitiators” (Ciba Specialty Chemicals Corporation, priority 2004, dated 2010):

Test: Odor of the cured film (blue offset printing ink)
Parameters: key: 1 (odorless); 3 (strong odor)
Conditions: scale 1 to 3

CCC(Cc1ccccc1)(C(=O)c1ccc(N2CCOCC2)cc1)N(C)C (centres unmarked) [Irgacure 369, 2-benzyl-2-(dimethylamino)-1-[4-(4-morpholinyl)phenyl]-1-butanone]
odor (conc 3.0 %): 1
odor (conc 4.0 %): 1

CCC(Cc1ccccc1)(C(=O)c1ccc(NCCO)cc1)N(C)C (centres unmarked) [Example 1, 2-benzyl-1-[4-(2-hydroxyethylamino)phenyl]-2-dimethylamino-1-butanone]
odor (conc 3.0 %): 1
odor (conc 4.0 %): 1

CSc1ccc(C(=O)C(C)(C)N2CCOCC2)cc1 [Irgacure 907]
odor (conc 4.0 %): 2-3
